US20120107297A1
Results are given in words; binding and its absence hold for the method and conditions named. For some of these results: In cells and extracts the contact can be indirect. Some entries that bind do so weakly or less than the wild type. One block for each substance: values may come before it.

By UniProt entry, the sequences of proteins in these tests, tags left out.
UniProt P40337: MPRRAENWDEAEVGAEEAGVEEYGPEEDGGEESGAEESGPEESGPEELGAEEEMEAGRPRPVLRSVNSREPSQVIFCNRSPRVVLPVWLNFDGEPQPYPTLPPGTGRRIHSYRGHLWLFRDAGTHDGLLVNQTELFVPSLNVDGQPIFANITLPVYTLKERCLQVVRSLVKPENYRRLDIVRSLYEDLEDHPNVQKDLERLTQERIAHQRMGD
UniProt P61077: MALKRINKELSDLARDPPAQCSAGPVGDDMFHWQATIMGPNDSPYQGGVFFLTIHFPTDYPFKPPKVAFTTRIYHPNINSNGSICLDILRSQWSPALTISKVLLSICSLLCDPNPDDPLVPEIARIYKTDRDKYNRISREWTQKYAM
UniProt Q16763: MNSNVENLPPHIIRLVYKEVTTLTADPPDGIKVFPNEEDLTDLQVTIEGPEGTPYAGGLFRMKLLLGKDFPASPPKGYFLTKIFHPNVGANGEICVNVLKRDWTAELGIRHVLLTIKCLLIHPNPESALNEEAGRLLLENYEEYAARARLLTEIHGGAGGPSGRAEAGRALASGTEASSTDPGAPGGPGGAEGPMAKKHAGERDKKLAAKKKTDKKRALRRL

What was measured:
HA-VHL = HA-VHL (UniProt P40337); assay: GST pull-down from 293-HA-VHL cell lysate, Western blot with anti-HA
[1] = target: VHL (endogenous von Hippel-Lindau protein) (human) (UniProt P40337); assay: Western blots of FIG. 4-FIG. 6 (co-immunoprecipitation of endogenous proteins)
[2] = target: VHL (endogenous von Hippel-Lindau protein) (human) (UniProt P40337); assay: sucrose density gradient centrifugation, Western blot (FIG. 7)
[3] = target: VHL (endogenous von Hippel-Lindau protein) (human) (UniProt P40337); assay: conclusion of Example 1 (immunoprecipitation, GST pull-down, sucrose gradient)
[4] = target: VHL (endogenous von Hippel-Lindau protein) (human) (UniProt P40337); assay: summary sentence citing FIG. 4-FIG. 7
[5] = target: VHL (endogenous von Hippel-Lindau protein) (human) (UniProt P40337); assay: co-immunoprecipitation with anti-VHL or anti-UCP from HLK3 and Ck-K1 lysates, Western blot
[6] = target: VHL (endogenous von Hippel-Lindau protein) (human) (UniProt P40337); assay: sucrose density gradient centrifugation of HepG2 lysate, Western blot of fractions
[7] = target: VHL (endogenous von Hippel-Lindau protein) (human) (UniProt P40337); assay: sucrose density gradient centrifugation of lysate of CAKI cells transfected with F-UCP, Western blot of fractions
[8] = target: VHL (endogenous von Hippel-Lindau protein) (human) (UniProt P40337); assay: Western blots of FIG. 4-FIG. 6 (immunoprecipitation of over-expressed protein)
GST-VHL [9] = target: GST-VHL (UniProt P40337); assay: GST pull-down from 293-F-UCP cell lysate, Western blot with anti-Flag
[10] = target: VHL (endogenous von Hippel-Lindau protein) (human) (UniProt P40337); assay: sucrose density gradient centrifugation, Western blot (FIG. 8b)
[11] = target: VHL (endogenous von Hippel-Lindau protein) (human) (UniProt P40337); assay: anti-Flag immunoprecipitation from HEK293T lysate, Western blot
GST-VHL [12] = target: GST-VHL (UniProt P40337); assay: Western blots of FIG. 4-FIG. 6 (GST pull-down)

binding (HA-VHL): binds
Substance: GST-UbCH5C (from UniProt P61077 1-147) (enzyme)

binding [1]: binds
binding [2]: binds
binding [3]: binds
binding [4]: binds
binding [5]: binds
binding [6]: binds
Substance: UCP (endogenous E2EPF ubiquitin carrier protein) (from UniProt Q16763 1-222) (enzyme)

binding [7]: binds
binding [8]: binds
binding (GST-VHL [9]): binds
binding [10]: binds
binding [11]: binds
binding (GST-VHL [12]): binds
Substance: Flag-UCP (from UniProt Q16763 1-222) (enzyme)
